The data set in a line: Etching capacity on tooth enamel (scanning electron microscope). To be noted: 40% aqueous solution on bovine tooth enamel.

For the compound `C=C(COCCP(=O)(O)O)C(=O)O` [Comparison monomer, 2-[4-dihydroxyphosphoryl-2-oxa-butyl]-acrylic acid, reference compound], the “exposure time to produce clearly visible etching pattern” value came to 30 s.

As to `C=C(COCCP(=O)(O)OC)C(=O)O` [Monomer 1, 2-[4-hydroxymethoxyphosphoryl-2-oxa-butyl]-acrylic acid], the “exposure time to produce clearly visible etching pattern” value was determined as 10 s.

Source of the values: US6350839B2, “Hydrolysis-stable and polymerizable acrylophosphonic acid monoesters” (Ivoclar Vivadent AG, priority 2000, dated 2002).
